# From publication PMC3814295
# Chains of the proteins cited; added tags and fusions are not shown.
# UniProt Q06609: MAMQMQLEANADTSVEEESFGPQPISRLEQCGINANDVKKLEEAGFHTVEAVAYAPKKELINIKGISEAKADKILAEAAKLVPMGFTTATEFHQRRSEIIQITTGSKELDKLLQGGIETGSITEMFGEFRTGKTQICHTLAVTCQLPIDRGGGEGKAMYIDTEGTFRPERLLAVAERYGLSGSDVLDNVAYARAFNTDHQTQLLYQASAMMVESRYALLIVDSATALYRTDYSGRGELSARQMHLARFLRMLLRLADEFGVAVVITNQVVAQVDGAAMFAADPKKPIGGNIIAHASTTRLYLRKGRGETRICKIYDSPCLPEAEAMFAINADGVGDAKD
# Results are given in words; binding and its absence hold for the method and conditions named. In cells and extracts the contact can be indirect. Some results given as binding are weak or reduced against the parent protein; the word gives no strength. Tags and fused reporters may be left off the sequences shown.
# Molecular target: T1, purified 6xHis-tagged RAD52 (human) (UniProt P43351)
# T1 sequence: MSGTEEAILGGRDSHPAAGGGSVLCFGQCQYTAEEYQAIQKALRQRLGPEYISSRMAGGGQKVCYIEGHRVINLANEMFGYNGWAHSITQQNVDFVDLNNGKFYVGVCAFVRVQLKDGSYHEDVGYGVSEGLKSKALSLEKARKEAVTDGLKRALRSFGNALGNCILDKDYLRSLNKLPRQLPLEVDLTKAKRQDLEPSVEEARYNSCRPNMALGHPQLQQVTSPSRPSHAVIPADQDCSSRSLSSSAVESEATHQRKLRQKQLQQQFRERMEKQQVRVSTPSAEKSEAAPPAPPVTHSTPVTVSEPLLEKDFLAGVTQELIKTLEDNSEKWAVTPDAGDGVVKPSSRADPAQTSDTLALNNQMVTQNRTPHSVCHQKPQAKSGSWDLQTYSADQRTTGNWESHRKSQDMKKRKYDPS
# Assay: pull-down; 5 ug purified His-tagged RAD52 as bait incubated overnight with 1 mg benzonase-treated HeLa nuclear extract in Tris/Cl pH 7.6, 150 mM NaCl, 0.5% Triton X-100; captured with anti-His antibody-coupled Protein G (magnetic beads) 1 h at RT; Western blotting; only the target purified
substance,measurement,value
RAD51 (HeLa nuclear extract) (from UniProt Q06609 1-339),binding,binds
